The values below come from article PMC8408529.

The assay has as its target Numb (mouse, MELC) (mouse (endogenous in MELC)). The experiment in a line: co-IP; induced MELC lysates (50 mM HEPES pH 7.5, 150 mM NaCl, 1% NP-40) precipitated with anti-4.1R, anti-Numb, anti-LGN, anti-NuMA or anti-p150^Glued Ab on protein A-Sepharose, rabbit or mouse IgG as controls; immunoblot with each respective Ab. For orientation: A western blot detects proteins with antibodies after separation by electrophoresis.

No constants are given. Whether binding was seen depends on the method and setting. Binding seen in cells or lysates may run through a third protein. Binding can be weak; no strength is given.

B1: LGN (mouse, MELC) (protein, UniProt Q8VDU0 1-679)
chain: MEGNLISMREDHSFHVRYRMEASCLELALEGERLCKSGDCRAGVSFFEAAVQVGTEDLKTLSAIYSQLGNAYFYLHDYAKALEYHHHDLTLARTIGDQLGEAKASGNLGNTLKVLGNFDEAIVCCQRHLDISRELNDKVGEARALYNLGNVYHAKGKSFGCPGPQDTGEFPEDVRNALQAAVDLYEENLSLVTALGDRAAQGRAFGNLGNTHYLLGNFRDAVIAHEQRLLIAKEFGDKAAERRAYSNLGNAYIFLGEFETASEYYKKTLLLARQLKDRAVEAQSCYSLGNTYTLLQDYEKAIDYHLKHLAIAQELKDRIGEGRACWSLGNAYTALGNHDQAMHFAEKHLEISREVGDKSGELTARLNLSDLQMVLGLSYSTNNSMMSENIEIDGSLHGAGAKLGRRHSMENLELMKLTPEKVPNWNSEILAKQKPLIAKPSAKLLFVNRLKGKKYKSGSACTKVLQDASNSVDHRAPRSQKKISSDTIGDEGFFDLLRRFQSNRMDDQRCHLQGNCRTTSTAAASATPKLMKAPSVSVVSPNTDEFLDLLASSQSRRLDDQRASFSNLPGLRLTKGNSPSVLERLMTNDKKEPDEDFFDILVKCQGSRLDDQRCAPPSAATKGPTVPDEDFFSLILRSQAKRMDEQRVLLQRDPNRDSEFGLKELLQNNALLEFKHSGK
Consider B1, for which the binding entry is recorded as “binds”.
